Test results from PubChem BioAssay AID2551 (National Center for Advancing Translational Sciences (NCATS), 2010).
The campaign covered roughly 310,000 compounds. About 17,000 (5.5%) were called active. The inconclusive results got no clear call from the source; some entries with a clear call stand among them for comparison. Calls come from the whole dose curve; as a rule, active = well fitted inhibition curve with a large enough effect; inconclusive = small, poorly fitted or top-dose-only effect, or effect the other way; inactive = no such curve, though single readings can be large or run the other way. Potencies of inconclusive entries are doubtful fits and often do not repeat.
Note: nearly all actives have a fitted effect of over 60% in size.
Potency is the fitted concentration of half-maximal effect.

Amino acid sequences for entries named in this document (tags omitted). A change or cut given only in a name is not applied to a line headed by its entry.
UniProt P51450: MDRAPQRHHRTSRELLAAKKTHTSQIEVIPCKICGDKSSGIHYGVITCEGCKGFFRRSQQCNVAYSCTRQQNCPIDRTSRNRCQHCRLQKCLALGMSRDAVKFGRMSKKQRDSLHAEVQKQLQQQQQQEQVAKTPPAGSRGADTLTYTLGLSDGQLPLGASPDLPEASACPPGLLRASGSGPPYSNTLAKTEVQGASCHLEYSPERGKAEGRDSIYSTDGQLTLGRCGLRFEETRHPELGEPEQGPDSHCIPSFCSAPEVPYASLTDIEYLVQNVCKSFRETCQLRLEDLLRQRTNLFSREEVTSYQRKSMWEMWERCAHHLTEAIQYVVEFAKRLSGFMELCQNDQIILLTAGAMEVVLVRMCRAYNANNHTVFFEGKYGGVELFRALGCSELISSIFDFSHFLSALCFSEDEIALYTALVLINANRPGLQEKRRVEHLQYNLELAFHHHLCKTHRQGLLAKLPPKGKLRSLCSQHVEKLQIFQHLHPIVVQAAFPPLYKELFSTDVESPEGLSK

What follows are compounds tested against Nuclear receptor ROR-gamma (Mus musculus) (UniProt P51450) (assay: qHTS for inhibitors of ROR gamma transcriptional activity). Settings: Drosophila S2 Gal4-RORgamma UAS-luciferase reporter, 20 h; series mostly up to 53.6 µM.
How it was run: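 ROR gamma transcriptional activity was tracked as Gal4-UAS luciferase output in stably transfected Drosophila Schneider cells, with compound added 1 hr before 700 uM copper sulfate induction and a 20 hr ambient-temperature incubation.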
In the case of Cc1csc(NC(=O)/C=C/c2ccc(C)o2)n1, the Potency is reported as active: 4.47 µM.
O=[N+]([O-])c1ccc(N/N=C/c2cccc(O)c2O)cc1 was tested, and the Potency was “inactive”.
For CC(C)c1ccccc1NC(=S)NC(C)c1ccccc1 (configuration not stated), the Potency was inconclusive: 3.16 µM [inhibitor, single point].
In the case of Oc1ccc(/C=N/Nc2nc(-c3ccccc3F)nc3ccccc23)c(O)c1, the Potency is reported as active: 10 µM.
For Cc1ccc(CNC(=O)C2CCCN2S(=O)(=O)c2ccc(Cl)cc2)cc1 (configuration not stated), the Potency was inconclusive: 0.0891 µM [activator, partial curve].
c1ccc(Cc2nnc3sc(-c4ccccn4)nn23)cc1 was tested, and the Potency was “inactive”.
For CCCCn1c(-c2ccccc2)cnc1SCC(=O)NCCc1ccc(OC)c(OC)c1, the Potency was inconclusive: 12.6 µM [activator, single point].
In the case of COc1ccc(C)c(-n2c(=O)n(Cc3ccccc3)c(=O)c3[nH]cnc32)c1, the Potency is reported as “inactive”.
For O=C(Nc1nncs1)c1cc2c(s1)CCC2, the Potency was inconclusive: 14.1 µM [inhibitor, single point].
With O=C(c1ccc2nc[nH]c2c1)N1CCN(c2ncc(C(F)(F)F)cc2Cl)CC1 the Potency was inconclusive: 11.2 µM [activator, partial curve].
NC(=O)CC(NC(=S)NCc1ccccc1)C(=O)O (configuration not stated) was tested, and the Potency was inconclusive: 7.94 µM [inhibitor, partial curve, poor fit].
For O=C(Oc1c(-c2ccccc2)c(=O)n2c3c(cccc13)CC2)c1ccccc1, the Potency was “inactive”.
In the case of COc1ccc(/C=N/NC(=O)c2c(Br)cnn2C)c2ccccc12, the Potency is reported as active: 20 µM.
CCNc1nc(=S)nc(NCc2ccccc2)[nH]1 was tested, and the Potency was active: 3.16 µM.
With Cc1ccc(N2CCCCn3c2nc2c3c(=O)n(CC(=O)O)c(=O)n2C)cc1 the Potency was inconclusive: 0.501 µM [inhibitor, full curve].
In the case of COc1ccc2nc(C)cc(SCC(=O)Nc3c(C)cccc3C)c2c1, the Potency is reported as “inactive”.
Cc1ccc(-c2cc(C(F)F)nc(S(C)(=O)=O)n2)cc1 was tested, and the Potency was active: 10 µM.
O=C1CC(c2cccc(Cl)c2)c2cc3c(cc2N1)CCC3 (configuration not stated) was tested, and the Potency was inconclusive: 11.2 µM [activator, partial curve].
For CN(C)S(=O)(=O)N(CC(=O)N1CCN(c2ccccc2F)CC1)c1ccccc1, the Potency was “inactive”.
With O=C1/C(=C/c2ccc(N3CCOCC3)o2)SC(=Nc2ccccc2)N1CCc1c[nH]c2ccccc12 the Potency was active: 3.16 µM.
With CC1CCC(O)C/C1=C\C=C1/CCCC2(C)C1CCC2C(C)/C=C/C(C)C(C)C (configuration not stated) the Potency was inconclusive: 35.5 µM [inhibitor, single point].
With CCC(=O)NNc1nc2c(Cl)cccc2s1 the Potency was inconclusive: 14.1 µM [inhibitor, single point].
With Cc1ccc(CNC(=O)C2CCCN(S(=O)(=O)c3cnc[nH]3)C2)cc1 (configuration not stated) the Potency was “inactive”.
For CCCCCCCC(=O)N/N=C(\C)c1ccc(O)cc1O, the Potency was active: 7.08 µM.
CN(C)/C=C/C(=O)c1ccc(Cl)cc1 was tested, and the Potency was inconclusive: 12.6 µM [inhibitor, single point].
With O=C(CSc1nc2ccccc2c(=O)n1CC1CCCO1)Nc1ccc(F)cc1 (configuration not stated) the Potency was “inactive”.
With CCCCCCc1cc2cc(S(=O)(=O)c3ccc(C)cc3)c(=O)oc2cc1O the Potency was inconclusive: 35.5 µM [activator, single point].
With FC(F)Sc1nc(-c2ccccc2)c(-c2ccccc2)n1C(F)F the Potency was inconclusive: 11.2 µM [activator, partial curve].
Cc1c(C(=O)Nc2ccc(S(=O)(=O)N3CCOCC3)cc2)cccc1[N+](=O)[O-] was tested, and the Potency was inconclusive: 15.8 µM [activator, partial curve].
For O=c1c2ccccc2[nH]c(=S)n1CCCN1CCN(c2ccccc2F)CC1, the Potency was active: 3.55 µM.
In the case of Cc1cccc(C(=O)Nc2sc(-c3ccccc3)cc2C(=O)O)c1, the Potency is reported as inconclusive: 22.4 µM [activator, partial curve].
For CCCOc1ccc(-c2c(C(=O)N/N=C/c3cccs3)nnn2-c2nonc2N)cc1, the Potency was active: 2.24 µM.
For Cc1ccc(C)c(NC(=S)NCc2cccs2)c1, the Potency was active: 3.98 µM.
Cc1ccc(C2/C(=C(/O)c3cnn(-c4ccccc4)c3C)C(=O)C(=O)N2CCN2CCOCC2)o1 (configuration not stated) was tested, and the Potency was inconclusive: 22.4 µM [inhibitor, single point].
With COC(=O)c1ccc(OCC2c3cc(OC)c(OC)cc3CCN2C(=O)c2ccco2)cc1 (configuration not stated) the Potency was inconclusive: 7.94 µM [activator, partial curve, poor fit].
With Cc1nnc(N2C(=O)C(=O)/C(=C(/O)c3ccc4c(c3)OCCO4)C2c2ccc(F)cc2)s1 (configuration not stated) the Potency was “inactive”.
In the case of O=C(N/N=C/c1ccc(OCc2ccccc2)cc1)c1ccco1, the Potency is reported as inconclusive: 20 µM [inhibitor, single point].
